PMC10298287
These are yes or no findings as the source states them, for the method shown. Some binding calls cover weakened binding; strength is not graded here.

Molecular target: T1, AtIDD10 (JACKDAW) (Arabidopsis) (UniProt Q700D2)
T1 sequence: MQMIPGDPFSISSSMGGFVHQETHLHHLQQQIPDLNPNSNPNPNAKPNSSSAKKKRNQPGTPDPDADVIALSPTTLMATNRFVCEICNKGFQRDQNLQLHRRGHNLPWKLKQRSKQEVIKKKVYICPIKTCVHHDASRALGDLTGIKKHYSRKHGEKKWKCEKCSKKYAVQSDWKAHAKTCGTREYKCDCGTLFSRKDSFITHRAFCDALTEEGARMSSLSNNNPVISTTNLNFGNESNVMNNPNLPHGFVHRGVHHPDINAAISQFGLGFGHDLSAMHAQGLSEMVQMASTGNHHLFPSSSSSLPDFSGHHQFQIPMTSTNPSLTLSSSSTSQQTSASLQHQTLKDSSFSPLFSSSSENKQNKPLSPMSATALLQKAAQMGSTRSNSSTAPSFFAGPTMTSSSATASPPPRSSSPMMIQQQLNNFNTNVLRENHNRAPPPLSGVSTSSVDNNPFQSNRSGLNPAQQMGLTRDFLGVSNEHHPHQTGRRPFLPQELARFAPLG
Assay: two-hybrid; IDD baits in pGBT9, GRAS preys in pGAD424, yeast strain PJ69-4A; serial dilutions spotted on -LW and -LWH, 3-amino-1,2,4-triazole added as needed; 3 days at 30 °C

binding: binds
B1: AtSHR (protein, UniProt Q9SZF7 1-531)
chain: MDTLFRLVSLQQQQQSDSIITNQSSLSRTSTTTTGSPQTAYHYNFPQNDVVEECFNFFMDEEDLSSSSSHHNHHNHNNPNTYYSPFTTPTQYHPATSSTPSSTAAAAALASPYSSSGHHNDPSAFSIPQTPPSFDFSANAKWADSVLLEAARAFSDKDTARAQQILWTLNELSSPYGDTEQKLASYFLQALFNRMTGSGERCYRTMVTAAATEKTCSFESTRKTVLKFQEVSPWATFGHVAANGAILEAVDGEAKIHIVDISSTFCTQWPTLLEALATRSDDTPHLRLTTVVVANKFVNDQTASHRMMKEIGNRMEKFARLMGVPFKFNIIHHVGDLSEFDLNELDVKPDEVLAINCVGAMHGIASRGSPRDAVISSFRRLRPRIVTVVEEEADLVGEEEGGFDDEFLRGFGECLRWFRVCFESWEESFPRTSNERLMLERAAGRAIVDLVACEPSDSTERRETARKWSRRMRNSGFGAVGYSDEVADDVRALLRRYKEGVWSMVQCPDAAGIFLCWRDQPVVWASAWRPT
